The source of these data is paper doi:10.1101/2023.05.19.541433.

These are yes or no findings as the source states them, for the method shown. In cells and extracts the contact can be indirect. Some results given as binding are weak or reduced against the parent protein; the word gives no strength. Sequences can lack the tags named with a protein.

This assay deals with T1, GFP-S100A11 (S100 Ca2+-binding protein A11) (human) (UniProt P31949).
T1 sequence: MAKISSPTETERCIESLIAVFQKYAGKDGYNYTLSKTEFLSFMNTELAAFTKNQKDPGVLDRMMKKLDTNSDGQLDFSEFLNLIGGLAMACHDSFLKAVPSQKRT
The assay is described as follows: co-IP.

B1: Leucine-Glycine-Asparagine repeat protein (LGN) (protein, UniProt P81274 1-684)
chain: MEENLISMREDHSFHVRYRMEASCLELALEGERLCKSGDCRAGVSFFEAAVQVGTEDLKTLSAIYSQLGNAYFYLHDYAKALEYHHHDLTLARTIGDQLGEAKASGNLGNTLKVLGNFDEAIVCCQRHLDISRELNDKVGEARALYNLGNVYHAKGKSFGCPGPQDVGEFPEEVRDALQAAVDFYEENLSLVTALGDRAAQGRAFGNLGNTHYLLGNFRDAVIAHEQRLLIAKEFGDKAAERRAYSNLGNAYIFLGEFETASEYYKKTLLLARQLKDRAVEAQSCYSLGNTYTLLQDYEKAIDYHLKHLAIAQELNDRIGEGRACWSLGNAYTALGNHDQAMHFAEKHLEISREVGDKSGELTARLNLSDLQMVLGLSYSTNNSIMSENTEIDSSLNGVRPKLGRRHSMENMELMKLTPEKVQNWNSEILAKQKPLIAKPSAKLLFVNRLKGKKYKTNSSTKVLQDASNSIDHRIPNSQRKISADTIGDEGFFDLLSRFQSNRMDDQRCCLQEKNCHTASTTTSSTPPKMMLKTSSVPVVSPNTDEFLDLLASSQSRRLDDQRASFSNLPGLRLTQNSQSVLSHLMTNDNKEADEDFFDILVKCQGSRLDDQRCAPPPATTKGPTVPDEDFFSLILRSQGKRMDEQRVLLQRDQNRDTDFGLKDFLQNNALLEFKNSGKKSADH
B1: the binding result is on record as “binds”.
